Over roughly 33,000 sequences, “E-score (-0.5 to 0.5)” has its median near -0.016; the highest 2% begin near 0.3. The list shows a part of the results.
target: T1, Yer184c (UniProt P39961); experiment: PBM E-score (8-mer binding enrichment) (E-score (-0.5 to 0.5)); higher = stronger / more preferred TF binding; details: protein concentration: 100 nM; construct: GST-full length
T1 sequence: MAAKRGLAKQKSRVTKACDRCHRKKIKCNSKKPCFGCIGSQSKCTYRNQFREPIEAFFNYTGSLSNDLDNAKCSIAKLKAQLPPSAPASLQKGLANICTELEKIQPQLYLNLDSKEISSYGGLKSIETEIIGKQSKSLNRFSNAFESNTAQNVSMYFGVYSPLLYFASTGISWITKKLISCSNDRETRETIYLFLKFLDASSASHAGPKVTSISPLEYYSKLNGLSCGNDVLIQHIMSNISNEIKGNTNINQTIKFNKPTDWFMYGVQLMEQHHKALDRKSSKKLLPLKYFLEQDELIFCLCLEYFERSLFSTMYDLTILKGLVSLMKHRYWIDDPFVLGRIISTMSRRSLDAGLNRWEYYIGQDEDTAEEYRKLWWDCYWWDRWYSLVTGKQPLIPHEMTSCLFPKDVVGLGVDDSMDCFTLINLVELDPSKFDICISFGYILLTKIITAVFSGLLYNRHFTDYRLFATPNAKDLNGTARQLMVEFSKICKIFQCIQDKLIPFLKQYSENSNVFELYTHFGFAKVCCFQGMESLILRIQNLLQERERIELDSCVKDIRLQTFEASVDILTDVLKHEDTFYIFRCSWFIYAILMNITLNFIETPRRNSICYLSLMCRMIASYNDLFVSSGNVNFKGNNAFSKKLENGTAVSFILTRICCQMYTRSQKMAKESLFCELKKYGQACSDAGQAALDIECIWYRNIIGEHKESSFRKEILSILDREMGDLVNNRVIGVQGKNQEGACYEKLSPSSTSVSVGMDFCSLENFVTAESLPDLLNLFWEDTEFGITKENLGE
Procedure, shortened: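 Bound GST-tagged yeast transcription factors, applied at about 100-200 nM to double-stranded universal all-10-mer Agilent arrays, were detected with fluorescent anti-GST. Scans were normalised with masliner. A modified Wilcoxon-Mann-Whitney statistic, the E-score, was assigned to each ungapped eight-base word pooled with its reverse complement by the Universal PBM Analysis Suite.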

| Sequence | PBM E-score |
| --- | --- |
| ACAGAAAG | -0.0226 |
| AGAGTGTC | 0.219 |
| ATATGCAT | 0.0424 |
| GTATAGTA | 0.115 |
| CAGGTCCC | -0.231 |
| AGCACATG | 0.089 |
| CTCAAAGA | -0.0579 |
| GGCGGTGA | -0.124 |
| ACCTTTAC | -0.0262 |
| CGCGCCCA | -0.0609 |
| TAACTTAA | 0.231 |
| TATCAACA | 0.0798 |
| ACGGCTAA | 0.233 |
| GCAGTCGA | -0.114 |
| AACAGTGC | -0.091 |
| CTTAATAA | 0.205 |
| GAGACAAA | -0.086 |
| CACGAGTG | -0.162 |
| GAAATAAC | 0.198 |
| CATAGTCG | -0.0259 |
| CTGGTAGC | -0.148 |
| AAGAATGC | 0.00719 |
| CGTATTGA | -0.0164 |
| ACCCTCCG | -0.182 |
| ACCGGACG | 0.305 |

Some values from the list.
PBM E-score with CAGGTCCC is entered as -0.231
PBM E-score with TAACTTAA is entered as 0.231
PBM E-score with AAGAATGC is entered as 0.00719
PBM E-score with ACCGGACG is entered as 0.305
PBM E-score with ACGGCTAA is entered as 0.233
PBM E-score with CTCAAAGA is entered as -0.0579

Next part.

| Sequence | PBM E-score |
| --- | --- |
| GTGGTAAC | 0.0465 |
| AGCGCTTG | -0.0179 |
| CGTCAAAA | 0.129 |
| ATATGGAA | 0.00789 |
| TAAAAATA | 0.28 |
| AATCTCGT | 0.0258 |
| CCTCACAA | 0.158 |
| AGTTCAGC | -0.0919 |
| ATGAAGTA | -0.0122 |
| CGATTGGA | -0.0892 |
| GTCGTCAA | 0.05 |
| GAATATAC | 0.0307 |
| CAAGGACA | -0.0757 |
| AACAACAG | 0.0934 |
| ATATCTTG | 0.0464 |
| GGGCACTA | -0.185 |
| ACTATAAA | 0.145 |
| AATCGACG | -0.101 |
| CAGCGTTC | -0.12 |
| AATGTATA | 0.126 |
| GCATGGAA | 0.0947 |
| ACGTGACA | -0.138 |
| ACTACTCT | -0.069 |
| GACCGAGC | 0.101 |
| ACTGGACA | 0.0365 |

| Sequence | PBM E-score |
| --- | --- |
| ACACCGAA | 0.221 |
| GTCCGTCA | 0.179 |
| AGCGTCTA | -0.152 |
| AGAAACCT | -0.118 |
| CTTCAAAA | 0.137 |
| CAGTCAGC | -0.19 |
| AAAATGGA | 0.189 |
| GAATCGAA | 0.151 |
| ACTCAATA | 0.146 |
| CATGTACG | -0.0476 |
| GCTTTATA | -0.0149 |
| GCAATAAC | -0.0207 |
| GACCGACA | 0.0769 |
| ATAGTATA | 0.0999 |
| AATAGGAC | -0.12 |
| AATCGTAC | 0.0599 |
| AACACTAT | 0.28 |
| AGTGTCAC | -0.0331 |
| AGAGTAAG | -0.0171 |
| CCGTGCAA | 0.107 |
| GGATGACC | -0.201 |
| AGCAGCAC | -0.0879 |
| TACAACTA | 0.171 |
| ATGAAACA | 0.02 |
| AGGGGTCG | -0.34 |

| Sequence | PBM E-score |
| --- | --- |
| CTGCTGAA | 0.0515 |
| CTGTCGTC | 0.0244 |
| GACCAGCC | 0.0563 |
| CCCTATGA | -0.143 |
| CCATTGCG | -0.16 |
| CTCATTAA | 0.067 |
| TCATTGGA | 0.0906 |
| AAGGCACT | -0.145 |
| TGAGACAA | 0.0341 |
| ATGCGGTG | -0.161 |
| CCTTGAAA | 0.0146 |
| GAACCATA | 0.0328 |
| ATAAGCAA | 0.059 |
| TGAGTACA | -0.0144 |
| ATTGCACG | 0.187 |
| CTCCCTGC | -0.323 |
| ACACCTCG | 0.0317 |
| GAGGACGA | 0.0407 |
| TGATGAAA | 0.0197 |
| GCAGGAAA | -0.0351 |
| CCGGTAGC | 0.0055 |
| CTCAGTTA | 0.102 |
| CGAAGAAC | 0.186 |
| AATTAGTA | 0.196 |
| AGTCTCTA | -0.251 |

| Sequence | PBM E-score |
| --- | --- |
| CGGTCGAG | 0.0745 |
| GTGCGAGA | 0.0313 |
| CTCTCTCC | -0.261 |
| CTGGCAAG | -0.105 |
| CAGTAGAG | -0.209 |
| AGCTTATG | 0.0779 |
| ATTATCTC | 0.0272 |
| CGGTTCGA | 0.232 |
| AGAGCCGG | 0.314 |
| TAAGGAAA | 0.147 |
| ATTGTTAC | 0.218 |
| GGTGCAAC | 0.0255 |
| GAGTCGGA | 0.113 |
| CACGACCG | -0.16 |
| AGGACGCG | 0.0161 |
| ACGCCGAG | 0.328 |
| AGCTCGCG | 0.0686 |
| AAAAGACG | 0.0892 |
| ACAAGTTA | 0.0555 |
| ACGTCTGC | -0.215 |
| ATGAAGAA | 0.127 |
| GCTCATAC | -0.149 |
| GAAAGCCC | -0.00607 |
| AGTCTATG | -0.26 |
| ATCAAGCA | -0.0731 |

In a second layout: results already given
Sequence	PBM E-score
ATATGCAT	0.0424
CTCAAAGA	-0.0579

Next part:

| Sequence | PBM E-score |
| --- | --- |
| CTGCGGTC | -0.0472 |
| TATGACGA | -0.0329 |
| CCAGTATA | -0.0509 |
| CCTTAAAA | 0.00433 |
| ATCCATAG | -0.138 |
| GGCTGGTA | -0.0436 |
| AGGTGCAG | -0.134 |
| CCATCGGG | 0.0347 |
| AGTTGTGC | -0.0294 |
| CCGATTCC | 0.164 |
| ATACTGGC | -0.23 |
| GAATTCTC | 0.146 |
| AGAGCCCA | -0.127 |
| AACGTGGT | -0.158 |
| GATCCACC | -0.199 |
| ATTCGGGC | 0.141 |
| CTACTCAC | 0.00961 |
| ACTCCACA | -0.122 |
| AACGGTTG | -0.0137 |
| AGACGGAA | 0.277 |
| ACGAATTA | 0.124 |
| GAGTATAA | 0.198 |
| TCCCTAAA | -0.0674 |
| AAAGTGAA | -0.0362 |
| GTAATTTA | 0.162 |

| Sequence | PBM E-score |
| --- | --- |
| GCGCGGAC | 0.126 |
| CCCAATGC | -0.287 |
| CCCTGGTC | -0.308 |
| ACCTGAAT | 0.114 |
| ACCAAAGG | -0.218 |
| CGTTTTAA | 0.144 |
| CTAGATTC | -0.0473 |
| CTAACTCA | -0.045 |
| ATCGAACA | 0.0698 |
| CGGATGGC | 0.123 |
| GCGTTCGA | 0.0373 |
| ACATTTTA | 0.0272 |
| GCCAGAGC | -0.282 |
| GGCGCAAA | -0.00247 |
| AGCCCAAA | 0.056 |
| CCCGCCAA | -0.0677 |
| CGGGCGGC | 0.0253 |
| ACAGCAGT | 0.0227 |
| CGAAGCGA | 0.146 |
| AAACTCAA | 0.184 |
| ATGTTTCC | 0.176 |
| CGTGGGTC | -0.113 |
